The entries are a selection whose mix differs from that of the whole data set. At the low end of the ranking, values are background and their order means little.

Chains of the proteins cited; added tags and fusions are not shown. Lines headed by an entry give the natural chain unless they say otherwise; changes in a name come on top.
UniProt Q00613: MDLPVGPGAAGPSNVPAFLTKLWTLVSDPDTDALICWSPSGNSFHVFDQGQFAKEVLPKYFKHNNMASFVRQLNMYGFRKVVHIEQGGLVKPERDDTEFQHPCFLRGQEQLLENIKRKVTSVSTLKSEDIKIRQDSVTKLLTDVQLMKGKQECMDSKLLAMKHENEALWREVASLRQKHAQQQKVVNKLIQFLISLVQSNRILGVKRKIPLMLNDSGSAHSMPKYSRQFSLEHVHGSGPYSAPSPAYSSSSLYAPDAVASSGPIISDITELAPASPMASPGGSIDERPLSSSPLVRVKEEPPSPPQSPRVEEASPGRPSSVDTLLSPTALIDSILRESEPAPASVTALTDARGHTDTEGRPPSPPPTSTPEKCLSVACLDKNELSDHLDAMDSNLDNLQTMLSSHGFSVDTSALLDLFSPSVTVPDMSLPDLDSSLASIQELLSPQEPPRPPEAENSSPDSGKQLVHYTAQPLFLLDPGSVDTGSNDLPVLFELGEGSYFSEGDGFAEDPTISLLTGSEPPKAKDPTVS

For 39 sequences, binding signal results are on record in article PMC7862700.

The assay addresses HSF1 (UniProt Q00613). The assay can be described thus: DAPPL (digital affinity profiling via proximity ligation, sequencing). To be noted: 10 mM Tris-HCl pH 7.5, 50 mM NaCl, 1 mM DTT, 4% glycerol, room temperature, 30 min; GST-TFs on glutathione beads, 16-mer random dsDNA library, 0.1% …; high values mean tight binding; double strand, one strand shown; scale: fold enrichment (6-mer frequency, TF over GST control).
Sequence CCAATG gave a binding signal of 0.984.
The result for TAACCC reads 1.3; that for TACCCA, 0.981.
The sequence TGTGAC registered a binding signal of 0.799.
The value for CGTCCG was 0.81; that for CGCTAC was 0.881.
Consider GGAAGC, for which the binding signal was found to be 0.794.
CTGGTT came in with a binding signal of 1.24.
The value for TATGAA was 1.21; that for ACTCTA was 1.63; that for AGTTCC was 1.34.
The value for CCATGC was 0.87; that for CAAAAT was 1.2; that for CACTGG was 1.16.
The value for TTAACG was 1.73.
The sequence GCGCTC had a binding signal of 0.982.
The value for ACGCTG was 0.905.
The value for GGCTCC was 1.13.
The value for CCATTC was 1.15.
CCTACG yielded a binding signal of 1.21.
Regarding CTCTGG, the binding signal is 1.81.
The value for GCTGAT was 1.16; that for TTCTCC was 1.98; that for GGTCCC was 0.798.
As to AAAAAG, the binding signal worked out at 1.34.
The value for CGAAAA was 1.85.
Sequence CCGCCC gave a binding signal of 0.932.
The value for TGCCTG was 1.05.
The result for GTCACA reads 0.821.
The value for GAACAC was 1.21; that for CCGCCT was 1.08; that for ATATTA was 1.35.
Take CTGGAT: the binding signal turned out to be 2.19.
The value for AGCTCC was 1.22; that for TCCAAT was 1.23.
The result for GGAATT reads 1.45; that for ATCTAG, 2.66; that for TCTTAG, 1.5.
In the case of GTTACG, the binding signal came out at 0.795.
